From the supplement of paper PMC12067093, “Discovery and optimisation of a covalent ligand for TRIM25 and its application to targeted protein ubiquitination” (Chemical Science, 2025)
The other results are listed elsewhere or left out.

Amino acid sequences for entries named in this document (tags omitted). A change or cut given only in a name is not applied to a line headed by its entry.
UniProt Q8NEZ5: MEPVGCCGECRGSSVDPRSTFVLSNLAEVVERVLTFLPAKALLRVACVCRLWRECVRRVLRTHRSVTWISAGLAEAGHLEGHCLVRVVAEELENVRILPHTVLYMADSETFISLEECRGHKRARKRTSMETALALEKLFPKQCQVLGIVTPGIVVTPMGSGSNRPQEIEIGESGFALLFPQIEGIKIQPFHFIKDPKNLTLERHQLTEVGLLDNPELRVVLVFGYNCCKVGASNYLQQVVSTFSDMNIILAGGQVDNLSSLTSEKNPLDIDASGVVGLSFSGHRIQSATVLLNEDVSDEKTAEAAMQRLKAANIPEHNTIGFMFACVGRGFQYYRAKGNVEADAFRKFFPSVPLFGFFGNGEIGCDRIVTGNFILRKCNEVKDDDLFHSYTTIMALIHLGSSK
UniProt P49327, whole entry, looked up: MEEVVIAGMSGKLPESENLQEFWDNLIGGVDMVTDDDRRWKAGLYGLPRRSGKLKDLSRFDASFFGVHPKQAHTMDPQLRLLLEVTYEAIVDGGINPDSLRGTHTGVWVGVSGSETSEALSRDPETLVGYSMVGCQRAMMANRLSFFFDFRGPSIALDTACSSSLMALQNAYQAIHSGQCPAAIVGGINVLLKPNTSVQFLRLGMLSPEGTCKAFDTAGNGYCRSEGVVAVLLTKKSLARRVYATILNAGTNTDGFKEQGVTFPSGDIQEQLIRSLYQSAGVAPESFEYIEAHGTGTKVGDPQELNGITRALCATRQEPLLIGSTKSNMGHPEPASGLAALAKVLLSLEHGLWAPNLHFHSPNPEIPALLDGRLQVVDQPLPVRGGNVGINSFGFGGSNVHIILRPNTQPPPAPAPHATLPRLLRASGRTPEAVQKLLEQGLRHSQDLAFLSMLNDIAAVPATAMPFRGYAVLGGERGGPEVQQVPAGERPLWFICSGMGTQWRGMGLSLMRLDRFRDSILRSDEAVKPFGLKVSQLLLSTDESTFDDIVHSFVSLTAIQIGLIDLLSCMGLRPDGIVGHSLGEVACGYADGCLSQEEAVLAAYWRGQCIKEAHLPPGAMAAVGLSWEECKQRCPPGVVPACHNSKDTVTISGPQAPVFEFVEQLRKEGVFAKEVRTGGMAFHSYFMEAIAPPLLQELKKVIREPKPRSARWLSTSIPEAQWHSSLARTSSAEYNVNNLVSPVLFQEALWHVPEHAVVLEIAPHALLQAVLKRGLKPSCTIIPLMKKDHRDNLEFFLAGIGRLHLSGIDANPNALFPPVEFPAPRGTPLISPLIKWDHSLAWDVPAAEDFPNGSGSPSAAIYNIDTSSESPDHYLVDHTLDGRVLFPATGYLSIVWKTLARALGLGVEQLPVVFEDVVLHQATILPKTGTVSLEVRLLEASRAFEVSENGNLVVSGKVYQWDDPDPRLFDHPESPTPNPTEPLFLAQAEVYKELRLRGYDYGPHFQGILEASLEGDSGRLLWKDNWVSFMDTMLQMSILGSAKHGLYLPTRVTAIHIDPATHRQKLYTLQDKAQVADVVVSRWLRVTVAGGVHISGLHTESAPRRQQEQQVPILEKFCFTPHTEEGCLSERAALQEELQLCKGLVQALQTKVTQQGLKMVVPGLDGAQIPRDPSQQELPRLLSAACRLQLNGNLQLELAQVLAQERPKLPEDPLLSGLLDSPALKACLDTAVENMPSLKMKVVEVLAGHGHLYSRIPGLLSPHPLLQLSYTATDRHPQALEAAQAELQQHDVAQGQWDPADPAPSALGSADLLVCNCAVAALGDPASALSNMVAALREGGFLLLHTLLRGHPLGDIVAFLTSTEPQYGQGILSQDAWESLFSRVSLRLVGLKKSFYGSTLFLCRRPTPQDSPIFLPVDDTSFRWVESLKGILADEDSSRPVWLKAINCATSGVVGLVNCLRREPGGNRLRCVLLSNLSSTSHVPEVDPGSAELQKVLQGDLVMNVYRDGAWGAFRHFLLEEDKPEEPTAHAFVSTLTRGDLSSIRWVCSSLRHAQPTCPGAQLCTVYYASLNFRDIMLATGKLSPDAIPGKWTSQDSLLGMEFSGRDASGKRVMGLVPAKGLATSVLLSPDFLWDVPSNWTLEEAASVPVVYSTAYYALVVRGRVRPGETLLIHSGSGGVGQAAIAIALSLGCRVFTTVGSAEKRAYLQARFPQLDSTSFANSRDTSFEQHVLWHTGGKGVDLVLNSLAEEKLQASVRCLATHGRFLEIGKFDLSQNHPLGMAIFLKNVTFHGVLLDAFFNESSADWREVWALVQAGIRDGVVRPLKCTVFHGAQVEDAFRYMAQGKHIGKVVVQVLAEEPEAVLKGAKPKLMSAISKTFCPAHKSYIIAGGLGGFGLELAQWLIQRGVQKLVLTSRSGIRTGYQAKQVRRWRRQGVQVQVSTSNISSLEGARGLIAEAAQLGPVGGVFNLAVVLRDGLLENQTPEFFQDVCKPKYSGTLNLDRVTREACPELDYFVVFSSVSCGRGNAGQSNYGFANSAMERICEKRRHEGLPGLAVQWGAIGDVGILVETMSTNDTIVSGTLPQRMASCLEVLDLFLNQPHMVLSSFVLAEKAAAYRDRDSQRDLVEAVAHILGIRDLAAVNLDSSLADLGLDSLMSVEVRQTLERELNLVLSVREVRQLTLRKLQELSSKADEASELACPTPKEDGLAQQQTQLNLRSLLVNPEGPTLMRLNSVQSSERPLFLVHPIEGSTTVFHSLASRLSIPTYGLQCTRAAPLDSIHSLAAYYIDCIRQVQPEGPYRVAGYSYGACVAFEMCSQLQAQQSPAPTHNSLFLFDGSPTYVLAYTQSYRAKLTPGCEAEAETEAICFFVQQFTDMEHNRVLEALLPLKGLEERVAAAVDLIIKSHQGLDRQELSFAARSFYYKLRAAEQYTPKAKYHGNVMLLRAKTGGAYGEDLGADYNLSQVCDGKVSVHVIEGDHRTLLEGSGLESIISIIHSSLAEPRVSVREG
UniProt Q13642: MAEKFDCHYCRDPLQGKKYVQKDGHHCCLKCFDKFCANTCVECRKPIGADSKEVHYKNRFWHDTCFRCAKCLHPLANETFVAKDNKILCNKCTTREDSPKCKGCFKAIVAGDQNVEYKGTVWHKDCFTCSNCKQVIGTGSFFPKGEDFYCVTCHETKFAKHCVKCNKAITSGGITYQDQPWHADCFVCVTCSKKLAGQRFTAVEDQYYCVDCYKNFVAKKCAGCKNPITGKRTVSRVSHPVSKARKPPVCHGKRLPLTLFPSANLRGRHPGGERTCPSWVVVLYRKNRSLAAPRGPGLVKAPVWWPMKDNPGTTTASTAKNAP
UniProt Q9NUQ9: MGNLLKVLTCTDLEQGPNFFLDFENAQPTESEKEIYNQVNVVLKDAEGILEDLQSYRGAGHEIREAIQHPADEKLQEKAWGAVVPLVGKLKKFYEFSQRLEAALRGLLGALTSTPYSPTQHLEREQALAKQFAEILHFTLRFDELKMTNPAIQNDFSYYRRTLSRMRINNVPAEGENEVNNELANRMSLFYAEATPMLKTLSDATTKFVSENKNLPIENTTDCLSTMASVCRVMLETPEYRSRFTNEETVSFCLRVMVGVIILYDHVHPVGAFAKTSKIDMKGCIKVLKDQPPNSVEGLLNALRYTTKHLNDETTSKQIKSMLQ
UniProt Q8N0U4: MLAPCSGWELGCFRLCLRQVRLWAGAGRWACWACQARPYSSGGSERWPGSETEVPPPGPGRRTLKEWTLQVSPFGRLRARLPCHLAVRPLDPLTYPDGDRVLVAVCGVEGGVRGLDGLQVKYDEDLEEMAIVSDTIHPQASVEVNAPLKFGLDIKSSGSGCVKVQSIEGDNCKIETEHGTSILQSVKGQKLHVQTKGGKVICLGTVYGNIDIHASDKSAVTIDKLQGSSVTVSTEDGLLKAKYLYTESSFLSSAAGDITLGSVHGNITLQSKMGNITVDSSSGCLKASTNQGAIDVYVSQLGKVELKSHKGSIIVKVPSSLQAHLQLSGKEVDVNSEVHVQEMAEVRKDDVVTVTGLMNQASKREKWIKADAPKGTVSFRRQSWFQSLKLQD
UniProt Q9NSD9: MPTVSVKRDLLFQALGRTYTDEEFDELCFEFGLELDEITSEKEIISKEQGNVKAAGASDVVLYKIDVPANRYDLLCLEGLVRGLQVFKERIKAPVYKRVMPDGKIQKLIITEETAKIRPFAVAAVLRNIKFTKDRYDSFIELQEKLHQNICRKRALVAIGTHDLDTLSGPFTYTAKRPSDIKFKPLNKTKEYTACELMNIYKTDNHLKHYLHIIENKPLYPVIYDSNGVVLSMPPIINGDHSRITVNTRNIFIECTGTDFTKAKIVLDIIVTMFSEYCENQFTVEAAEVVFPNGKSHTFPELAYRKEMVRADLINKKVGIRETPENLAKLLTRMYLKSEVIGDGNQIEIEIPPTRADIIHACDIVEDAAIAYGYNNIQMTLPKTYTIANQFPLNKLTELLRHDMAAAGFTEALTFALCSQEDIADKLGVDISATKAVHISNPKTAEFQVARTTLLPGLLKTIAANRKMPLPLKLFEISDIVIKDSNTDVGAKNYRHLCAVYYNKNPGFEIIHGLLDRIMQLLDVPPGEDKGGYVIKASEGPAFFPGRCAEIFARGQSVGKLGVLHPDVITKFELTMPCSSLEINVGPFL
UniProt Q658Y4: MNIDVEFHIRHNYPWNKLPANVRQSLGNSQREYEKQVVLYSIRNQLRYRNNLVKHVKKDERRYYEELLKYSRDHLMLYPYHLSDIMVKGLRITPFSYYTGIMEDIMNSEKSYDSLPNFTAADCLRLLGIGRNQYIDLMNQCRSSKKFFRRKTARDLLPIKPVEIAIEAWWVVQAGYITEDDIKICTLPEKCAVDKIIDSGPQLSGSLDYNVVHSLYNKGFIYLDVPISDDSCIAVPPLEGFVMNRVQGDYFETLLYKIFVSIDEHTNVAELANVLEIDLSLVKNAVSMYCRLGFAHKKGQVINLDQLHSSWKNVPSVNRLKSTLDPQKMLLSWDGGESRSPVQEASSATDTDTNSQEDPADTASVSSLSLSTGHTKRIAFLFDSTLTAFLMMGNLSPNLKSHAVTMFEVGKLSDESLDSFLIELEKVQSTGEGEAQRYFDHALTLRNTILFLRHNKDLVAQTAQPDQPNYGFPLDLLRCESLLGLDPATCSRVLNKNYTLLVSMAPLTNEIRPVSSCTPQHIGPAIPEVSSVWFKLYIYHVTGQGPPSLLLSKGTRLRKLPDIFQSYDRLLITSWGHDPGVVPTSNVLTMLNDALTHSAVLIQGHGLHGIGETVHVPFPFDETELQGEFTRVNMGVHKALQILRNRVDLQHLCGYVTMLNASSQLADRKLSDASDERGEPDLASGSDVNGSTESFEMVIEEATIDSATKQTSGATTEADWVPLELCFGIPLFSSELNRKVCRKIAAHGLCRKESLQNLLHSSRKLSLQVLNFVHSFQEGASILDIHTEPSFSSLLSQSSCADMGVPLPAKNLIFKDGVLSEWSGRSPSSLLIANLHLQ
UniProt Q9Y324: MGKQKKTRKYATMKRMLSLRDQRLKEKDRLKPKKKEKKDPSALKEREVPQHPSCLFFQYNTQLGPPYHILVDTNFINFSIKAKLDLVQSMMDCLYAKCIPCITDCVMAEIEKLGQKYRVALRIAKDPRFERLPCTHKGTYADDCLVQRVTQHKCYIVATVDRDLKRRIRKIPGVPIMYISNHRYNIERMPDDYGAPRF
UniProt P02679: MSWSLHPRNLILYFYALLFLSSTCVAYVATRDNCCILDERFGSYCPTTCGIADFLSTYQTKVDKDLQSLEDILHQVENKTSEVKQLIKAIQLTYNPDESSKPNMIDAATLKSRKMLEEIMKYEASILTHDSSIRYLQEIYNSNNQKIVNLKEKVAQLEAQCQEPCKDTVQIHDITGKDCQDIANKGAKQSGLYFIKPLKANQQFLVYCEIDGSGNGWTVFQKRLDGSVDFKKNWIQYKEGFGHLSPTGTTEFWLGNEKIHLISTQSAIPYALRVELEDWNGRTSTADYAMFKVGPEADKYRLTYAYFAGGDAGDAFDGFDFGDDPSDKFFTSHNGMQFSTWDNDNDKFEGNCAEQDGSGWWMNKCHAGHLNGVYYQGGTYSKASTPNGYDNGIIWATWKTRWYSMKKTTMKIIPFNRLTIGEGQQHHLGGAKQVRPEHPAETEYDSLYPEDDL
UniProt P39748, whole entry, looked up: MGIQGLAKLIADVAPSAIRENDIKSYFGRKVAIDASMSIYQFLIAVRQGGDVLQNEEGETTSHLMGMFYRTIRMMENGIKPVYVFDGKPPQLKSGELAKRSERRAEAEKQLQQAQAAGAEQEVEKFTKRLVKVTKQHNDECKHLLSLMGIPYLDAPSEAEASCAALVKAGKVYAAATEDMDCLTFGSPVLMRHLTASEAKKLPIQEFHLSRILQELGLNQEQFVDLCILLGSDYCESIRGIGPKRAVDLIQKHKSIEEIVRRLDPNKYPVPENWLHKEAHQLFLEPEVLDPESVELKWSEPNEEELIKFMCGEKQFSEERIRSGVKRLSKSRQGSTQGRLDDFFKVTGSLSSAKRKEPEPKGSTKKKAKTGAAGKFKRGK

What follows are targets tested with Cc1cc(ccc1-c1ccccc1)C(=O)N1CCCN(CC1)C(=O)CCl [compound 10] (assay: probe-labelled cysteine peptide fold change vs DMSO (competition) (log2 fold change); higher = less target engagement (more negative = stronger competition)). Settings: 10 µM; THP-1; incubation time: 4 h.
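Note: competitive profiling in live THP-1 cells: cysteine peptides tagged with an iodoacetamide desthiobiotin (IA-DTB) probe, intensity after compound treatment relative to DMSO-treated cells.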

Target | probe-labelled cysteine peptide fold change
FBH1_Q8NFZ0_580_TLENFFASADEELTIDHVPIWCK (UniProt Q8NFZ0) | -0.0464
FBXL20_Q96IG2_378_SCHSLER (UniProt Q96IG2) | 0.0657
FBXO22_Q8NEZ5_365_KFFPSVPLFGFFGNGEIGCDR (UniProt Q8NEZ5) | 0.106
FASN_P49327_1448_AINCATSGVVGLVNCLR (UniProt P49327) | -0.0469
FHL1_Q13642-1_273+276_FVFHQEQVYCPDCAK (UniProt Q13642) | -0.106
FAM49B_Q9NUQ9_223_NLPIENTTDCLSTMASVCR (UniProt Q9NUQ9) | 0.067
FAM185A_Q8N0U4_161_SSGSGCVK (UniProt Q8N0U4) | 0.0196
FBXO4_Q9UKT5_330_HEWQDEFSHIMAMTDPAFGSSGRPLLVLSCISQGDVK (UniProt Q9UKT5) | 0.0347
FERMT3_Q86UX7_407_GCEVVPDVNVSGQK (UniProt Q86UX7) | 0.0295
FARSB_Q9NSD9_151_LHQNICR (UniProt Q9NSD9) | -0.142
FASN_P49327_496_GGPEVQQVPAGERPLWFICSGMGTQWR (UniProt P49327) | 0.329
FASN_P49327_779_PSCTIIPLMK (UniProt P49327) | -0.0893
FARSB_Q9NSD9_195_EYTACELMNIYK (UniProt Q9NSD9) | -0.0615
FAR2_Q96K12_158_LEAFIHISTAYSNCNLK (UniProt Q96K12) | 0.0523
FASN_P49327_634+642_CPPGVVPACHNSK (UniProt P49327) | -0.0913
FBXL20_Q96IG2_351+364_HLGNGACAHDQLEVIELDNCPLITDASLEHLK (UniProt Q96IG2) | 0.273
FAM91A1_Q658Y4_750_IAAHGLCR (UniProt Q658Y4) | 0.00721
FCF1_Q9Y324_93_AKLDLVQSMMDCLYAK (UniProt Q9Y324) | 0.339

Same assay, conditions: 50 µM; THP-1; incubation time: 4 h

Target | probe-labelled cysteine peptide fold change
FCF1_Q9Y324_105_CIPCITDCVMAEIEK (UniProt Q9Y324) | -0.133
FBXW11_Q9UKB1_393_VWSTSTCEFVR (UniProt Q9UKB1) | 0.242
FES_P07332_626_LIGVCTQK (UniProt P07332) | 0.294
FBLN1_P23142_109_CCHCCLLGR (UniProt P23142) | -0.383
FAM91A1_Q658Y4_653_NRVDLQHLCGYVTMLNASSQLADR (UniProt Q658Y4) | -0.115
FANCB_Q8NB91_543_LSTNPFPAPYLMPCEIGLEAK (UniProt Q8NB91) | -0.211
FAM208A_Q9UK61_538_IAQFLQFSLIQCR (UniProt Q9UK61) | 0.348
FER_P16591_690_NCLVGENNVLK (UniProt P16591) | -0.0766
FBXL19_Q6PCT2_125_FGLSLMECTICNEIVHPGCLK (UniProt Q6PCT2) | 0.515
FARSB_Q9NSD9_255_NIFIECTGTDFTK (UniProt Q9NSD9) | 0.25
FGG_P02679_34_DNCCILDER (UniProt P02679) | -0.0532
FAM208A_Q9UK61_761_QQQDTCNSGIADIHR (UniProt Q9UK61) | -0.758
FGG_P02679_365_CHAGHLNGVYYQGGTYSK (UniProt P02679) | -0.452
FGD3_Q5JSP0_184_RLHLLDQVFCTR (UniProt Q5JSP0) | 0.0343
FECH_P22830_360_ECGVENIR (UniProt P22830) | 0.0461
FASN_P49327_1403_SFYGSTLFLCR (UniProt P49327) | 0.0134
FEN1_P39748_182_VYAAATEDMDCLTFGSPVLMR (UniProt P39748) | 0.082
FBH1_Q8NFZ0_580_TLENFFASADEELTIDHVPIWCK (UniProt Q8NFZ0) | -0.0926
FBXL20_Q96IG2_378_SCHSLER (UniProt Q96IG2) | -0.069
FBXO22_Q8NEZ5_365_KFFPSVPLFGFFGNGEIGCDR (UniProt Q8NEZ5) | 0.0353
FASN_P49327_1448_AINCATSGVVGLVNCLR (UniProt P49327) | -0.172
FHL1_Q13642-1_273+276_FVFHQEQVYCPDCAK (UniProt Q13642) | -0.119
FAM49B_Q9NUQ9_223_NLPIENTTDCLSTMASVCR (UniProt Q9NUQ9) | 0.112
FAM185A_Q8N0U4_161_SSGSGCVK (UniProt Q8N0U4) | 0.049
FBXO4_Q9UKT5_330_HEWQDEFSHIMAMTDPAFGSSGRPLLVLSCISQGDVK (UniProt Q9UKT5) | -0.08
